Results: patent US7098306B2, “Method and compositions for treating hepatocellular cancer” (The Regents of the University of California, priority 1997, dated 2006)

Test system: HepG2 cells
Assay: HPLC and MALDI-TOF identification of peptides acid-eluted from hepatocellular carcinoma cells
Set-up: species or system human
Details: MALDI-TOF of HPLC fractions; absent from Hep3B

| Sequence | identification of peptide in peptide pool eluted from HepG2 cells |
| --- | --- |
| GLSPNLNRFL (listed as Homo sapiens) [hAFP325-334, dominant HLA-A*0201 peptide derived from human alpha fetoprotein] | peaks were identified |
| GVALQTMKQ (listed as Homo sapiens) [hAFP542-550, dominant HLA-A*0201 peptide derived from human alpha fetoprotein] | peaks were identified |
| PLFQVPEPV (listed as Homo sapiens) [hAFP137-145, dominant HLA-A*0201 peptide derived from human alpha fetoprotein] | not possible to document the presence |
